PubChem BioAssay AID1159578 – Peter MacCallum Cancer Centre | 2015
Here is an unselected part of about 18,000 deposited reagents. About 1,030 of all reagents (5.7%) were called active. 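Inactive calls also include pools with fewer than 3300 nuclei, whose migration was not assessed.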 The raw values are shown without normalisation. Further read-outs or replicates are left out here.

Test: 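Knock-downs that alter how fast lymphatic endothelial cells migrate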 (primary screen)
Cells: human lymphatic endothelial cells
Reagent: siRNA pool against human genes, 40 nM
Time to read-out: 48 h after transfection
Read-out: 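High-content imaging of dye-stained cells in a scratch assay measures filled wound area and nuclei per well; duplicate means given as ratio to mock and robust z-score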
Reading the numbers: migration robust z-score: higher = faster migration into the scratch; nuclei per well: higher = more cells in the well
Hit rule: 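Migration changed when robust z exceeds 2 or falls below -2 and mean nuclei number is at least 3300; otherwise not called changed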
Meaning of the calls: active = migration changed; inactive = no migration change, or too few cells

{"target gene":"CLEC1B (C-type lectin domain family 1 member B)","migration robust z-score":0.88,"nuclei per well, duplicate mean":5822,"Outcome":"inactive"}
{"target gene":"PDIA6 (protein disulfide isomerase family A member 6)","migration robust z-score":-0.44,"nuclei per well, duplicate mean":6436,"Outcome":"inactive"}
{"target gene":"PPID (peptidylprolyl isomerase D)","migration robust z-score":0,"nuclei per well, duplicate mean":4758,"Outcome":"inactive"}
{"target gene":"CCDC91 (coiled-coil domain containing 91)","migration robust z-score":0.27,"nuclei per well, duplicate mean":6690,"Outcome":"inactive"}
{"target gene":"DUX5 (double homeobox 5)","migration robust z-score":-0.4,"nuclei per well, duplicate mean":4138,"Outcome":"inactive"}
{"target gene":"FITM2 (fat storage inducing transmembrane protein 2)","migration robust z-score":1.68,"nuclei per well, duplicate mean":5402,"Outcome":"inactive"}
{"target gene":"THBD (thrombomodulin)","migration robust z-score":0.42,"nuclei per well, duplicate mean":6860,"Outcome":"inactive"}
{"target gene":"UBE2G2 (ubiquitin conjugating enzyme E2 G2)","migration robust z-score":2.33,"nuclei per well, duplicate mean":5719,"Outcome":"active"}
{"target gene":"RAPGEF4 (Rap guanine nucleotide exchange factor 4)","migration robust z-score":1.44,"nuclei per well, duplicate mean":5757,"Outcome":"inactive"}
{"target gene":"PFAS (phosphoribosylformylglycinamidine synthase)","migration robust z-score":-0.38,"nuclei per well, duplicate mean":7111,"Outcome":"inactive"}
{"target gene":"MAN2A2 (mannosidase alpha class 2A member 2)","migration robust z-score":1.53,"nuclei per well, duplicate mean":5561,"Outcome":"inactive"}
{"target gene":"PI4KAP2 (phosphatidylinositol 4-kinase alpha pseudogene 2)","migration robust z-score":0.64,"nuclei per well, duplicate mean":5251,"Outcome":"inactive"}
{"target gene":"ITPR3 (inositol 1,4,5-trisphosphate receptor type 3)","migration robust z-score":-0.57,"nuclei per well, duplicate mean":5903,"Outcome":"inactive"}
{"target gene":"HENMT1 (HEN methyltransferase 1)","migration robust z-score":-0.12,"nuclei per well, duplicate mean":5957,"Outcome":"inactive"}

Reagents listed so far with an active call, once more:
{"target gene":"UBE2G2 (ubiquitin conjugating enzyme E2 G2)","migration robust z-score":2.33,"nuclei per well, duplicate mean":5719,"Outcome":"active"}

The results go on.
{"target gene":"HOXA2 (homeobox A2)","migration robust z-score":1.4,"nuclei per well, duplicate mean":5090,"Outcome":"inactive"}
{"target gene":"SLURP1 (secreted LY6/PLAUR domain containing 1)","migration robust z-score":-1.9,"nuclei per well, duplicate mean":4124,"Outcome":"inactive"}
{"target gene":"INSM2 (INSM transcriptional repressor 2)","migration robust z-score":-2.12,"nuclei per well, duplicate mean":4154,"Outcome":"active"}
{"target gene":"PELO (pelota mRNA surveillance and ribosome rescue factor)","migration robust z-score":1.36,"nuclei per well, duplicate mean":5838,"Outcome":"inactive"}
{"target gene":"ZNF780A (zinc finger protein 780A)","migration robust z-score":0.26,"nuclei per well, duplicate mean":5668,"Outcome":"inactive"}
{"target gene":"METTL21C (methyltransferase 21C, AARS1 lysine)","migration robust z-score":-0.08,"nuclei per well, duplicate mean":5046,"Outcome":"inactive"}
{"target gene":"ZNRF1 (zinc and ring finger 1)","migration robust z-score":1.09,"nuclei per well, duplicate mean":7008,"Outcome":"inactive"}
{"target gene":"CKS2 (CDC28 protein kinase regulatory subunit 2)","migration robust z-score":0.7,"nuclei per well, duplicate mean":4874,"Outcome":"inactive"}
{"target gene":"TPD52L2 (TPD52 like 2)","migration robust z-score":0.94,"nuclei per well, duplicate mean":5796,"Outcome":"inactive"}
{"target gene":"PLOD1 (procollagen-lysine,2-oxoglutarate 5-dioxygenase 1)","migration robust z-score":-2.6,"nuclei per well, duplicate mean":5346,"Outcome":"active"}
{"target gene":"BIRC5 (baculoviral IAP repeat containing 5)","migration robust z-score":0.68,"nuclei per well, duplicate mean":2578,"Outcome":"inactive"}
{"target gene":"POU3F2 (POU class 3 homeobox 2)","migration robust z-score":-0.83,"nuclei per well, duplicate mean":6264,"Outcome":"inactive"}
{"target gene":"ZNF646 (zinc finger protein 646)","migration robust z-score":0.78,"nuclei per well, duplicate mean":5610,"Outcome":"inactive"}
